PubChem BioAssay AID1053208 – Peter MacCallum Cancer Centre, 2014
Aim: 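Genes whose silencing cuts survival of bone tumour cells only with doxorubicin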 (primary screen). Cell system: mouse osteosarcoma cells, early-passage culture from an engineered mouse model of fibroblastic bone tumour. Reagents: siRNA pool against mouse genes, 40 nM. Timing: about 120 h (48 h before drug, then 72 h with drug). Treatment: doxorubicin 100 nM for 72 h, roughly 30-40% inhibitory dose. Measurement: 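Luminescent ATP signal taken as viability with or without 100 nM doxorubicin for 72 h; mean of two wells set against non-targeting siRNA and turned into robust z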. Direction: viability z-score with doxorubicin: higher = more viable cells under doxorubicin; viability z-score without drug: higher = more viable cells with knock-down alone. Hit rule: 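a pool counts as active when its viability z-score with doxorubicin is -2 or below and its z-score without drug lies between -2 and 2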.
In all, the deposit lists about 17,000 reagents; this is a part drawn at random. 788 of all reagents (4.7%) were called active. 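Calls rest on z-score classes alone; an extra cut-off of viability at most 70% of control was not applied to them.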 Further read-outs or replicates are left out here. No sequences are given here.

Silencing of Zfp185 (GeneID 22673) came out at: combined z-score class no change with or without drug; viability z-score with doxorubicin -0.22; viability z-score without drug -0.17; inactive. Slc9a7 (GeneID 236727) showed combined z-score class no change with or without drug; viability z-score with doxorubicin 0.34; viability z-score without drug 0.34; inactive. With knock-down of Vmn1r33 (GeneID 171187), the record shows combined z-score class high cell count with and without drug; viability z-score with doxorubicin 2.25; viability z-score without drug 2.19; inactive. Knock-down of Rnf41 (GeneID 67588) gave: combined z-score class no change with or without drug; viability z-score with doxorubicin 0.34; viability z-score without drug -0.51; inactive. After knock-down of Stk39 (GeneID 53416), the screen gave combined z-score class no change with or without drug; viability z-score with doxorubicin -0.11; viability z-score without drug -1.18; inactive. Depletion of Opn4 (GeneID 30044) resulted in: combined z-score class no change with or without drug; viability z-score with doxorubicin 1.12; viability z-score without drug 0.17; inactive.

For Morf4l1 (GeneID 21761) the deposit lists combined z-score class no change with or without drug; viability z-score with doxorubicin -1.46; viability z-score without drug -1.52; inactive. Pxmp4 (GeneID 59038) showed combined z-score class no change with or without drug; viability z-score with doxorubicin -0.67; viability z-score without drug 1.18; inactive. With knock-down of G6pc2 (GeneID 14378), the record shows combined z-score class no change with or without drug; viability z-score with doxorubicin 0.67; viability z-score without drug -0.51; inactive. After knock-down of Dnaja1 (GeneID 15502), the record shows combined z-score class no change with or without drug; viability z-score with doxorubicin -0.45; viability z-score without drug 0.84; inactive. Against Dmbx1 (GeneID 140477), the values are combined z-score class low cell count with doxorubicin only; viability z-score with doxorubicin -2.36; viability z-score without drug -0.51; active. Knock-down of Clxn (GeneID 66793) gave: combined z-score class no change with or without drug; viability z-score with doxorubicin 0.22; viability z-score without drug 0.51; inactive.

Against Tmc1 (GeneID 13409), the entry reads combined z-score class no change with or without drug; viability z-score with doxorubicin 0.34; viability z-score without drug -0.51; inactive. Against Or5b12b (GeneID 258694), the entry reads combined z-score class no change with or without drug; viability z-score with doxorubicin -0.45; viability z-score without drug -0.17; inactive. For C630011I23, the entry reads combined z-score class no change with or without drug; viability z-score with doxorubicin 0.9; viability z-score without drug 0.17; inactive. Depletion of Spata4 (GeneID 69281) came out at: combined z-score class no change with or without drug; viability z-score with doxorubicin 0.45; viability z-score without drug -0.67; inactive. Gcnt2 (GeneID 14538) scored combined z-score class low cell count with doxorubicin only; viability z-score with doxorubicin -2.59; viability z-score without drug -0.84; active. Against Chchd10 (GeneID 103172), the values are combined z-score class no change with or without drug; viability z-score with doxorubicin 1.12; viability z-score without drug 0.84; inactive.

Gstp2 (GeneID 14869) gave combined z-score class no change with or without drug; viability z-score with doxorubicin -0.56; viability z-score without drug -0.34; inactive. With knock-down of Ly6d (GeneID 17068) the results were combined z-score class no change with or without drug; viability z-score with doxorubicin -0.79; viability z-score without drug -0.51; inactive. Utp23 (GeneID 78581) scored combined z-score class low cell count with doxorubicin only; viability z-score with doxorubicin -2.25; viability z-score without drug -1.18; active. Depletion of Syt10 (GeneID 54526) came out at: combined z-score class low cell count without drug only; viability z-score with doxorubicin -1.91; viability z-score without drug -7.93; inactive. Against Gpr108 (GeneID 78308) the deposit lists combined z-score class no change with or without drug; viability z-score with doxorubicin -0.22; viability z-score without drug 0.17; inactive. After knock-down of Gja3 (GeneID 14611) the results were combined z-score class no change with or without drug; viability z-score with doxorubicin 1.57; viability z-score without drug 0.34; inactive.

Cntn2 (GeneID 21367) showed combined z-score class no change with or without drug; viability z-score with doxorubicin -1.12; viability z-score without drug -0.51; inactive. Jade1 (GeneID 269424) showed combined z-score class low cell count with doxorubicin only; viability z-score with doxorubicin -2.47; viability z-score without drug -0.17; active. Depletion of Nrf1 (GeneID 18181) came out at: combined z-score class no change with or without drug; viability z-score with doxorubicin 0.67; viability z-score without drug -0.34; inactive. After knock-down of Ift81 (GeneID 12589), the screen gave combined z-score class low cell count with doxorubicin only; viability z-score with doxorubicin -2.36; viability z-score without drug -1.85; active.

Copied from the listing (2 entries):
Dmbx1 (GeneID 140477) → combined z-score class = low cell count with doxorubicin only; viability z-score with doxorubicin = -2.36; viability z-score without drug = -0.51; call = active
Clxn (GeneID 66793) → combined z-score class = no change with or without drug; viability z-score with doxorubicin = 0.22; viability z-score without drug = 0.51; call = inactive
